Measured values published in publication PMC11476781.
No constants are given. Whether binding was seen depends on the method and setting.

Biological target: G104C-IBA57 (human) (UniProt Q5T440)
Test: SEC-MALS; Superdex 200 Increase 10/300 GL coupled to MALS (DAWN HELEOS); samples 20–50 μM; deoxygenated 50 mM sodium phosphate pH 7.0, 200 mM NaCl, 5 mM DTT; 0.7 mL/min; both purified

binding: no binding (tested: 20–50 μM)
B1: G104C-IBA57 (protein, UniProt Q5T440 44-352)
chain: AGAAWACFRLDGRTLLRVRGPDAAPFLLGLLTNELPLPSPAAAGAPPAARAGYAHFLNVQCRTLYDVILYGLQEHSEVSGFLLECDSSVQGALQKHLALYRIRRKVTVEPHPELRVWAVLPSSPEACGAASLQERAGAAAILIRDPRTARMGWRLLTQDEGPALVPGGRLGDLWDYHQHRYLQGVPEGVRDLPPGVALPLESNLAFMNGVSFTKGCYIGQELTARTHHMGVIRKRLFPVRFLDPLPTSGITPGATVLTASGQTVGKFRAGQGNVGLALLWSEKIKGPLHIRASEGAQVALAASVPDWWP
